Test results as given in patent publication US20110171231A1 (published 2011).
Results are given in words; binding and its absence hold for the method and conditions named. Some entries that bind do so weakly or less than the wild type.

Experiments:
recombinant mouse PlGF-2 [1] = target: T1, recombinant mouse PlGF-2 (mouse, UniProt P49764 24-158, limits assumed); test: competition ELISA on mPlGF-coated plate; blocked ligand: biotinylated NRP-1-Fc
T1 sequence (looked up): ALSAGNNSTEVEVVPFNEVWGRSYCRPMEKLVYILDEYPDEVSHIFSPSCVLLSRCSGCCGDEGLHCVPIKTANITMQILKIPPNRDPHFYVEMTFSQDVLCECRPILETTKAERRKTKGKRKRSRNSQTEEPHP

recombinant mouse PlGF-2 [2] = target: T1, recombinant mouse PlGF-2; test: Biacore, anti-mouse Fc chip (FIG. 5B)
human PlGF-2 = target: T2, human PlGF-2 (human, UniProt P49763-3 19-170); test: Biacore, anti-mouse Fc chip (FIG. 5B)
T2 construct: Panning used human PlGF residues 19-116 and human PlGF-1; also called hPlGF-2; hPlGF
T2 sequence (looked up): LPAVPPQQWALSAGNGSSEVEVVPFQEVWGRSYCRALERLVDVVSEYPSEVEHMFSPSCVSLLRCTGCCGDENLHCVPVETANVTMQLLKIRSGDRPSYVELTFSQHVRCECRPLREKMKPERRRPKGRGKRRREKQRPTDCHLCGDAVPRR

recombinant mouse PlGF-2 [3] = target: T1, recombinant mouse PlGF-2; test: competition ELISA on mPlGF-coated plate; blocked ligand: biotinylated NRP-2
Experimental: The ability of the anti-PlGF Mabs C9.V2 and 7A10 to block the interaction between PlGF and its co-receptors NRP-1 and NRP-2 (Gluzman-Poltorak et al., 2000; Mamluk et al., 2002) was also tested. For PlGF/NRP1 and PlGF/NRP2 competition binding assays, Microtiter plates (Nunc, Rochester, N.Y., USA) were coated with recombinant mouse PlGF (BioVision, Mountain View, Calif., USA) either at 2 μg/mL (for PlGF/NRP1 binding) or at 4 ug/mL (for PlGF/NRP2 binding) in PBS. After an overnight incubation at 4° C., assay plates were washed with wash buffer (PBS/0.05% Tween 20) and treated with block buffer (PBS/0.5% BSA) for 1 to 2 hours. Samples were serially diluted in sample diluent (PBS/0.5% BSA/15 ppm Proclin/0.05% Tween 20/0.2% BGG/0.25% CHAPS/5 mM EDTA/0.3 M NaCl, pH7.4) containing 0.25 ug/mL of heparin (Sigma, St. Louis, Mo., US) and incubated in the presence of either 100 ng/mL of biotin-mouse
NRP1-Fc (0.66 nM for PlGF/NRP1 binding) or 425 ng/mL of biotin-NRP2-Fc (6 nM for PlGF/NRP2-binding). After incubation for 2 hours, assay plates were washed 6 times with wash buffer and then incubated for 45 to 60 minutes with AMDEX streptavidin-HRP (GE Healthcare, Pittsburgh, Pa., USA) diluted 10,000 folds in assay buffer (PBS/0.5% BSA/0.05% Tween 20, pH7.4). […] Absorbance was measured at 450 nm against a reference wavelength of 620 nm.

recombinant mouse PlGF-2 [4] = target: T1, recombinant mouse PlGF-2; test: competition ELISA on murine PlGF coated plates

binding (recombinant mouse PlGF-2 [1]): binds
binding (recombinant mouse PlGF-2 [2]): binds
binding (human PlGF-2): binds
binding (recombinant mouse PlGF-2 [3]): binds
binding (recombinant mouse PlGF-2 [4]): binds
B1: anti-PlGF monoclonal antibody C9.V2 (antibody, mouse IgG2a, V domains shown)
VH: EVQLVESGGGLVQPGGSLRLSCAASGFTFTNTWISWVRQAPGKGLEWVGSITPANGYTNYADSVKGRFTISADTSKNTAYLQMNSLRAEDTAVYYCARAVYPWFFAYWGQGTLVTVSS
VL: DIQMTQSPSSLSASVGDRVTITCRASQYVSHAVAWYQQKPGKAPKLLIYSASFLYSGVPSRFSGSGSGTDFTLTISSLQPEDFATYYCQSAYTPPTTFGQGTKVEIK
notes: also called C9v2.9; anti-PlGF MAb C9v2
